Measured values as given in the supplement of paper PMC4604168 (melanoma cell lines).
Some of the results follow. Many values rest on one well or one pass, so single values are uncertain.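 The apoptosis fraction was the count of cleaved-PARP antibody-stained nuclei relative to all DNA-stained nuclei, imaged in 1,536-well plates. Screening doses were set so most cells survived, and baseline and induced cleaved-PARP levels vary greatly across cell lines.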

These compounds were tested on WM3619 (assay: cleaved PARP positive nuclei fraction relative to DMSO control; melanoma cells; higher = more apoptosis). Details: library dose: low library concentration; 72 h.

SMILES	cleaved PARP positive nuclei fraction
Nc1ncn([C@H]2C[C@H](O)[C@@H](CO)O2)c(=O)n1 [decitabine] + COc1ccc(-c2ccc3c(N4CCOCC4)nc(N4C[C@@H](C)O[C@@H](C)C4)nc3n2)cc1CO [KU0063794] (first compound 0.1 µM, partner dose 0.02 µM)	103%
CS(=O)(=O)CCNCc1ccc(-c2ccc3ncnc(Nc4ccc(OCc5cccc(F)c5)c(Cl)c4)c3c2)o1 [lapatinib] + O=S(=O)(c1ccccc1)N(CC(F)(F)F)c1ccc(C(O)(C(F)(F)F)C(F)(F)F)cc1 [T0901317] (first compound 0.8 µM, partner dose 1.4 µM)	103%
Nc1ccn([C@@H]2O[C@H](CO)[C@@H](O)C2(F)F)c(=O)n1 [gemcitabine] + CC1(C)NC(=O)N(c2ccc([N+](=O)[O-])c(C(F)(F)F)c2)C1=O [nilutamide] (first compound 0.0004 µM, partner dose 1 µM)	122%
CCCS(=O)(=O)Nc1ccc(F)c(C(=O)c2c[nH]c3ncc(Cl)cc23)c1F + O=C1NC(=O)/C(=C/c2ccc(-c3ccc(F)cc3O)o2)S1 [AS252424] (first compound 0.08 µM, partner dose 1 µM)	125%
CNC(=O)c1cc(Oc2ccc(NC(=O)Nc3ccc(Cl)c(C(F)(F)F)c3)cc2)ccn1 [sorafenib] + C[C@@H]1CCN(C(=O)CC#N)C[C@@H]1N(C)c1ncnc2[nH]ccc12 [CP690550] (first compound 0.4 µM, partner dose 1 µM)	94%
Cc1cc(Nc2cc(N3CCN(C)CC3)nc(/C=C/c3ccccc3)n2)n[nH]1 + CN(C)S(=O)(=O)c1ccc2c(c1)/C(=C/c1cc3c([nH]1)CCCC3)C(=O)N2 [SU6656] (first compound 0.04 µM, partner dose 0.4 µM)	118%
Nc1ncn([C@H]2C[C@H](O)[C@@H](CO)O2)c(=O)n1 [decitabine] + CCCCCCCCCCCC1=C(O)C(=O)C=C(O)C1=O [Embelin] (first compound 0.1 µM, partner dose 1.2 µM)	117%
Nc1nc(F)nc2c1ncn2[C@@H]1O[C@H](CO)[C@@H](O)[C@@H]1O [fludarabine] + CCCCCCCCCCCC1=C(O)C(=O)C=C(O)C1=O [Embelin] (first compound 0.2 µM, partner dose 1.2 µM)	89.3%
O=C(O)c1ccc2c(c1)nc(Nc1cccc(Cl)c1)c1ccncc12 + COc1ccc2c(c1)CCC1C2CCC2(C)C(NCCCCCCN3C(=O)C=CC3=O)CCC12 [U73122] (first compound 0.4 µM, partner dose 0.4 µM)	87.9%
Nc1ccn([C@@H]2O[C@H](CO)[C@@H](O)C2(F)F)c(=O)n1 [gemcitabine] + CO[C@@H]1[C@H](N(C)C(=O)c2ccccc2)C[C@H]2O[C@]1(C)n1c3ccccc3c3c4c(c5c6ccccc6n2c5c31)C(=O)NC4 [Midostaurin] (first compound 0.0004 µM, partner dose 0.08 µM)	159%
CN1CCN(c2ccc3nc(-c4c(N)c5c(F)cccc5[nH]c4=O)[nH]c3c2)CC1 [Dovitinib] + O=C(O)C(=O)Nc1sc2c(c1C(=O)O)CCNC2 [TCS401] (first compound 0.1 µM, partner dose 1.66667 µM)	95.3%
Nc1ncn([C@H]2C[C@H](O)[C@@H](CO)O2)c(=O)n1 [decitabine] + COC(=O)c1sccc1S(=O)(=O)Nc1ccc(Nc2ccccc2)cc1OC [GSK0660] (first compound 0.1 µM, partner dose 1 µM)	112%
Cc1cc(Nc2cc(N3CCN(C)CC3)nc(/C=C/c3ccccc3)n2)n[nH]1 + Cc1cc(N2CCOCC2)cc2[nH]c(-c3c(NC[C@@H](O)c4cccc(Cl)c4)cc[nH]c3=O)nc12 [BMS536924] (first compound 0.04 µM, partner dose 0.2 µM)	97.6%
Cn1c(=O)n(-c2ccc(C(C)(C)C#N)cc2)c2c3cc(-c4cnc5ccccc5c4)ccc3ncc21 + NC(=O)Nc1cc(-c2cccc(F)c2)sc1C(=O)N[C@H]1CCCNC1 [AZD7762] (first compound 0.004 µM, partner dose 0.02 µM)	230%
C=C(c1ccc(C(=O)O)cc1)c1cc2c(cc1C)C(C)(C)CCC2(C)C [Bexarotene] + O=C(Nc1ccccc1)c1cc([N+](=O)[O-])ccc1Cl [GW9662] (first compound 2 µM, partner dose 2 µM)	112%
CNC(=O)c1cc(Oc2ccc(NC(=O)Nc3ccc(Cl)c(C(F)(F)F)c3)cc2)ccn1 [sorafenib] + COC(=O)c1sccc1S(=O)(=O)Nc1ccc(Nc2ccccc2)cc1OC [GSK0660] (first compound 0.4 µM, partner dose 1 µM)	118%

Fetched one by one from the entries so far:
SMILES	cleaved PARP positive nuclei fraction
C=C(c1ccc(C(=O)O)cc1)c1cc2c(cc1C)C(C)(C)CCC2(C)C [Bexarotene] + O=C(Nc1ccccc1)c1cc([N+](=O)[O-])ccc1Cl [GW9662] (first compound 2 µM, partner dose 2 µM)	112%
Cc1cc(Nc2cc(N3CCN(C)CC3)nc(/C=C/c3ccccc3)n2)n[nH]1 + Cc1cc(N2CCOCC2)cc2[nH]c(-c3c(NC[C@@H](O)c4cccc(Cl)c4)cc[nH]c3=O)nc12 [BMS536924] (first compound 0.04 µM, partner dose 0.2 µM)	97.6%

Next part

SMILES	cleaved PARP positive nuclei fraction
CNC(=O)c1cc(Oc2ccc(NC(=O)Nc3ccc(Cl)c(C(F)(F)F)c3)cc2)ccn1 [sorafenib] + CCCCCCCCCCCC1=C(O)C(=O)C=C(O)C1=O [Embelin] (first compound 0.4 µM, partner dose 1.2 µM)	93%
CS(=O)(=O)CCNCc1ccc(-c2ccc3ncnc(Nc4ccc(OCc5cccc(F)c5)c(Cl)c4)c3c2)o1 [lapatinib] + CN(C)S(=O)(=O)c1ccc2c(c1)/C(=C/c1cc3c([nH]1)CCCC3)C(=O)N2 [SU6656] (first compound 0.8 µM, partner dose 0.4 µM)	86.3%
C[C@@H](Oc1cc(-c2cnn(C3CCNCC3)c2)cnc1N)c1c(Cl)ccc(F)c1Cl [Crizotinib] + CCCCCCCCCCCC1=C(O)C(=O)C=C(O)C1=O [Embelin] (first compound 0.2 µM, partner dose 1.2 µM)	91.5%
Nc1nc(F)nc2c1ncn2[C@@H]1O[C@H](CO)[C@@H](O)[C@@H]1O [fludarabine] + Cc1cc(N2CCOCC2)cc2[nH]c(-c3c(NC[C@@H](O)c4cccc(Cl)c4)cc[nH]c3=O)nc12 [BMS536924] (first compound 0.2 µM, partner dose 0.2 µM)	115%
Cc1cc(Nc2cc(N3CCN(C)CC3)nc(/C=C/c3ccccc3)n2)n[nH]1 + COc1ccc(COc2ccc(Cc3cnc(N)nc3N)cc2OC)cc1 [GW2580] (first compound 0.04 µM, partner dose 1 µM)	98.5%
CNC(=O)c1cc(Oc2ccc(NC(=O)Nc3ccc(Cl)c(C(F)(F)F)c3)cc2)ccn1 [sorafenib] + NCC(=O)Nc1ccc(-n2nc(C(F)(F)F)cc2-c2ccc3c(ccc4ccccc43)c2)cc1 [OSU03012] (first compound 0.4 µM, partner dose 1 µM)	79.3%
Cc1cc(Nc2cc(N3CCN(C)CC3)nc(/C=C/c3ccccc3)n2)n[nH]1 + OCCn1cc(-c2cnc3nnn(Cc4ccc5ncccc5c4)c3n2)cn1 [PF04217903] (first compound 0.04 µM, partner dose 1 µM)	79.8%
Nc1nc(F)nc2c1ncn2[C@@H]1O[C@H](CO)[C@@H](O)[C@@H]1O [fludarabine] + CCc1ccc(CCOc2ccc(CC3SC(=O)NC3=O)cc2)nc1 [pioglitazone] (first compound 0.2 µM, partner dose 2 µM)	89.2%
CS(=O)(=O)CCNCc1ccc(-c2ccc3ncnc(Nc4ccc(OCc5cccc(F)c5)c(Cl)c4)c3c2)o1 [lapatinib] + OCCn1cc(-c2cnc3nnn(Cc4ccc5ncccc5c4)c3n2)cn1 [PF04217903] (first compound 0.8 µM, partner dose 1 µM)	83.7%
CNC(=O)c1cc(Oc2ccc(NC(=O)Nc3ccc(Cl)c(C(F)(F)F)c3)cc2)ccn1 [sorafenib] + Cc1cc([N+](=O)[O-])ccc1NS(=O)(=O)c1cc(Cl)ccc1Cl [FH535] (first compound 0.4 µM, partner dose 1 µM)	103%
CN1CCN(c2ccc3nc(-c4c(N)c5c(F)cccc5[nH]c4=O)[nH]c3c2)CC1 [Dovitinib] + COc1ccc2c(c1)CCC1C2CCC2(C)C(NCCCCCCN3C(=O)C=CC3=O)CCC12 [U73122] (first compound 0.1 µM, partner dose 0.4 µM)	83.7%
O=C(O)[C@@H]1[O][Sb](=[O])([O][Sb]2(=[O])[O][C@H]([C@H](O)CO)[C@H](O)[C@H](C(=O)O)[O]2)[O][C@H]([C@H](O)CO)[C@@H]1O (stereo partly specified) [stibogluconate] + COc1cc(N2CCC(N3CCN(C)CC3)CC2)ccc1Nc1ncc(Cl)c(Nc2ccccc2S(=O)(=O)C(C)C)n1 [NVP-TAE684] (first compound 2 µM, partner dose 0.08 µM)	95.5%
CCCS(=O)(=O)Nc1ccc(F)c(C(=O)c2c[nH]c3ncc(Cl)cc23)c1F + N#Cc1c(O)c2c(-c3ccc(-c4ccccc4O)cc3)csc2[nH]c1=O [A769662] (first compound 0.08 µM, partner dose 2 µM)	86.8%
CN1CCN(c2ccc3nc(-c4c(N)c5c(F)cccc5[nH]c4=O)[nH]c3c2)CC1 [Dovitinib] + Cc1cc(N2CCOCC2)cc2[nH]c(-c3c(NC[C@@H](O)c4cccc(Cl)c4)cc[nH]c3=O)nc12 [BMS536924] (first compound 0.1 µM, partner dose 0.2 µM)	132%
C[C@@H](Oc1cc(-c2cnn(C3CCNCC3)c2)cnc1N)c1c(Cl)ccc(F)c1Cl [Crizotinib] + COc1ccc(-c2ccc3c(N4CCOCC4)nc(N4C[C@@H](C)O[C@@H](C)C4)nc3n2)cc1CO [KU0063794] (first compound 0.2 µM, partner dose 0.02 µM)	104%
